This experiment has as its target T1, GrpE-like 2 (Grpel2) (mouse (endogenous in neonatal mouse cardiomyocytes)) (UniProt O88396).
T1 sequence: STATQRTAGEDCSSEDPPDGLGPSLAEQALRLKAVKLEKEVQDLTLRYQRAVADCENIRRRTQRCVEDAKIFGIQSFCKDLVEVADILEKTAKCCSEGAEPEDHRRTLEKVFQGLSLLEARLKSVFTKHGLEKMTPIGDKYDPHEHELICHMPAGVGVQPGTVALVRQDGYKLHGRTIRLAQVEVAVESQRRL
In words: co-IP; whole-cell lysates of NCMs in IP lysis buffer (25 mM Tris-HCl pH 7.4, 150 mM NaCl, 1% NP-40, 1 mM EDTA, 5% glycerol); 1 mg supernatant with 1 ug antibody overnight at 4 °C, protein A/G magnetic beads 3 h at 4 °C; Western blot; done in both directions (Fig. 5A, B). For orientation: Immunoblotting shows a protein as a band on a membrane.

These are yes or no findings as the source states them, for the method shown. Binding seen in cells or lysates may run through a third protein. Some results given as binding are weak or reduced against the parent protein; the word gives no strength.

B1: dihydrolipoyl succinyltransferase (DLST) (protein, UniProt Q9D2G2 69-454)
chain: NDVITVQTPAFAESVTEGDVRWEKAVGDAVAEDEVVCEIETDKTSVQVPSPANGIIEALLVPDGGKVEGGTPLFTLRKTGAAPAKAKPAETPAPAHKAEPAAPAAPPPPAAPVLTQMPPVPSPSQPPSSKPVSAIKPTAAPPLAEAGAAKGLRSEHREKMNRMRQRIAQRLKEAQNTCAMLTTFNEVDMSNIQEMRARHKDAFLKKHNLKLGFMSAFVKASAFALQEQPVVNAVIDDATKEVVYRDYIDISVAVATPRGLVVPVIRNVETMNYADIERTINELGEKARKNELAIEDMDGGTFTISNGGVFGSLFGTPIINPPQSAILGMHAIFDRPVAVGGKVEVRPMMYVALTYDHRLIDGREAVTFLRKIKAAVEDPRVLLLDL
Turning to B1, the binding entry was “binds”.

The values above are taken from article PMC10021968.
